Data: patent publication US11844800B2, “Methods and compositions for predicting and preventing relapse of acute lymphoblastic leukemia” (Massachusetts Institute of Technology, priority 2019, dated 2023)

Test system: BCR-ABL+ B-cell ALL
Experiment: Amplicon-based targeted sequencing for known resistance-associated mutations in pretreatment and relapsed animals
Format: in vivo, mice
Settings: relapsed animals, by treatment arm

SMILES | resistance-associated mutations enriched at relapse
O=C(Nc1ccc(OC(F)(F)Cl)cc1)c1cnc(N2CC[C@@H](O)C2)c(-c2cc[nH]n2)c1 [ABL001, asciminib] | Pathway reactivating mutations (STAT5 pathway, e.g. ABL1, STAT5A) enrich in relapses
Cc1cn(-c2cc(NC(=O)c3ccc(C)c(Nc4nccc(-c5cccnc5)n4)c3)cc(C(F)(F)F)c2)cn1 [Nilotinib, nilotinib] | follow similar trends as ABL001
